No dose or concentration is given here for some results.
Each molecule was assayed on Purkinje-Fasern aus Hundeherzen (assay: Electrophysiological studies on Purkinje fibres from dog hearts (Vmax)). Conditions: Sicherheitsfaktor = Rate Faktor von Vmax.(C20CF/C20Vmax).
Assay type: cell-based, Hund
Source text: Die antiarrhythmische Wirksamkeit der erfindungsgemäßen Verbindungen wurde sowohl anhand von elektrophysiologischen Studien an Purkinje-Fasern aus Hundeherzen sowie mit Hilfe von Ouabaininduzierten ventrikulären Tachykardien bei Hunden bestimmt. […]
Als zusätzliches Kriterium wurde der Vorzeitigkeitsindex (Prematurity-Faktor) bestimmt, der die erwünschte Wirksamkeit der erfindungsgemäßen Verbindungen bei vorzeitigen Extrasystolen charakterisiert.
In the case of `CCCNCC(O)COc1cccc(CCC(=O)c2ccc(OC)cc2)c1.Cl` (centres unmarked) [Beispiel 7, 1-(4-Methoxyphenyl)-3-[3′-(2-hydroxy-3-n-propylaminopropoxy)-phenyl]-1-propanon-hydrochlorid], the S.F. is reported as 2,5.
For `CCC(C)(C)NCC(O)COc1cccc(CCC(=O)c2cc(OC)c(OC)c(OC)c2)c1.Cl` (centres unmarked) [Beispiel 8, 1-(3,4,5-Trimethoxyphenyl)-3-[3′-(2-hydroxy-3-tert.-pentylaminopropoxy)-phenyl]-1-propanon-hydrochlorid], the S.F. was 9,4.
With `COc1cc(C(=O)CCc2cccc(OCC(O)CNC(C)C)c2)cc(OC)c1OC.Cl` (centres unmarked) [Beispiel 9, 1-(3,4,5-Trimethoxyphenyl)-3-[3′-(2-hydroxy-3-isopropylaminopropoxy)-phenyl]-1-propanon-hydrochlorid] the S.F. was 2,1.
`COc1cc(C(=O)CCc2cccc(OCC(O)CNC(C)(C)C)c2)cc(OC)c1OC.Cl` (centres unmarked) [Beispiel 10, 1-(3,4,5-Trimethoxyphenyl)-3-[3′-(2-hydroxy-3-tert.-butylaminopropoxy)-phenyl]-1-propanon-hydrochlorid] was tested, and the S.F. was 2,3.
In the case of `CCC(C)(C)NCC(O)COc1cccc(CCC(=O)c2c(C)cc(C)cc2C)c1.Cl` (centres unmarked) [Beispiel 11, 1-(2,4,6-Trimethylphenyl)-3-[3′-(2-hydroxy-3-tert.-pentylaminopropoxy)-phenyl]-1-propanon-hydrochlorid], the S.F. is reported as 3,5.
In the case of `Cc1cc(C)c(C(=O)CCc2cccc(OCC(O)CNC(C)(C)C)c2)c(C)c1.Cl` (centres unmarked) [Beispiel 14, 1-(2,4,6-Trimethylphenyl)-3-[3′-(2-hydroxy-3-tert.-butylaminopropoxy)-phenyl]-1-propanon-hydrochlorid], the S.F. is reported as 2,5.
With `Cc1cc(C)c(C(=O)CCc2cccc(OCC(O)CNC(C)C)c2)c(C)c1.Cc1cc(C)c(C(=O)CCc2cccc(OCC(O)CNC(C)C)c2)c(C)c1.O=C(O)C(=O)O` (centres unmarked) [Beispiel 15, 1-(2,4,6-Trimethylphenyl)-3-[3′-(2-hydroxy-3-isopropylaminopropoxy)-phenyl]-1-propanon-semi-oxalat] the S.F. was 7,6.
For `Cc1cc(C)c(CC(=O)Cc2cccc(OCC(O)CNC(C)(C)C)c2)c(C)c1.Cl` (centres unmarked) [Beispiel 17, 1-(2,4,6-Trimethylphenyl)-3-[3′-(2-hydroxy-3-tert.-butylaminopropoxy)-phenyl]-propanon-hydrochlorid], the S.F. was 9,9.
With `CCCNCC(O)COc1cc(CCC(=O)c2ccc(OC)c(OC)c2)ccc1OC.Cl` (centres unmarked) [Beispiel 22, 1-(3,4-Dimethoxyphenyl)-3-[3′-(2-hydroxy-3-n-propylaminopropoxy)-4′-methoxyphenyl]-1-propanon-hydrochlorid] the S.F. was 2,1.
In the case of `COc1ccc(C(=O)CCc2ccc(OC)c(OCC(O)CNC(C)C)c2)cc1OC.Cl` (centres unmarked) [Beispiel 23, 1-(3,4-Dimethoxyphenyl)-3-[3′-(2-hydroxy-3-isopropylaminopropoxy)-4′-methoxyphenyl]-1-propanon-hydrochlorid], the S.F. is reported as 14,0.
With `COc1ccc(C(=O)CCc2ccc(OC)c(OCC(O)CNC(C)(C)C)c2)cc1OC.Cl` (centres unmarked) [Beispiel 25, 1-(3,4-Dimethoxyphenyl)-3-[3′-(2-hydroxy-3-tert.-butylaminopropoxy)-4′-methoxyphenyl]-1-propanon-hydrochlorid] the S.F. was 3,0.
In the case of `CCC(C)(C)NCC(O)COc1cc(CCC(=O)c2ccc(OC)c(OC)c2)ccc1OC.Cl` (centres unmarked) [Beispiel 27, 1-(3,4-Dimethoxyphenyl)-3-[3′-(2-hydroxy-3-tert.-pentylaminopropoxy)-4′-methoxyphenyl]-1-propanon-hydrochlorid], the S.F. is reported as 5,4.
`CCC(C)(C)NCC(O)COc1cc(CCC(=O)c2cc(OC)c(OC)c(OC)c2)ccc1OC.Cl` (centres unmarked) [Beispiel 28, 1-(3,4,5-Trimethoxyphenyl)-3-[3′-(2-hydroxy-3-tert.-pentylaminopropoxy)-4′-methoxyphenyl]-1-propanon-hydrochlorid] was tested, and the S.F. was 5,0.
In the case of `COc1ccc(CCC(=O)c2cc(OC)c(OC)c(OC)c2)cc1OCC(O)CNC(C)C.Cl` (centres unmarked) [Beispiel 30, 1-(3,4,5-Trimethoxyphenyl)-3-[3′-(2-hydroxy-3-isopropylaminopropoxy)-4′-methoxyphenyl]-1-propanon-hydrochlorid], the S.F. is reported as 2,3.
`COc1ccc(CCC(=O)c2cc(OC)c(OC)c(OC)c2)cc1OCC(O)CNC(C)(C)C.Cl` (centres unmarked) [Beispiel 31, 1-(3,4,5-Trimethoxyphenyl)-3-[3′-(2-hydroxy-3-tert.-butylaminopropoxy)-4′-methoxyphenyl]-1-propanon-hydrochlorid] was tested, and the S.F. was 4,1.
For `COc1ccc(CCC(=O)c2cc(OC)c(OC)c(OC)c2)cc1OCC(O)CNC1CCCCC1.Cl` (centres unmarked) [Beispiel 32, 1-(3,4,5-Trimethoxyphenyl)-3-[3′-(2-hydroxy-3-cyclohexylaminopropoxy)-4′-methoxyphenyl]-1-propanon-hydrochlorid], the S.F. was 10,2.
`COc1ccc(CCC(=O)c2ccccc2OC)cc1OCC(O)CNC(C)(C)C.Cl` (centres unmarked) [Beispiel 35, 1-(2-Methoxyphenyl)-3-[3′-(2-hydroxy-3-tert.-butylaminopropoxy)-4′-methoxyphenyl]-1-propanon-hydrochlorid] was tested, and the S.F. was 4,0.
In the case of `CCC(C)(C)NCC(O)COc1cc(CCC(=O)c2ccc(C)cc2)ccc1OC.Cl` (centres unmarked) [Beispiel 36, 1-(4-Methylphenyl)-3-[3′-(2-hydroxy-3-tert.-pentylaminopropoxy)-4′-methoxyphenyl]-1-propanon-hydrochlorid], the S.F. is reported as 4,0.
In the case of `CCCNCC(O)COc1cc(CCC(=O)c2ccc(C)cc2)ccc1OC.Cl` (centres unmarked) [Beispiel 37, 1-(4-Methylphenyl)-3-[3′-(2-hydroxy-3-n-propylaminopropoxy)-4′-methoxyphenyl]-1-propanon-hydrochlorid], the S.F. is reported as 2,4.
With `COc1ccc(CCC(=O)c2ccc(C)cc2)cc1OCC(O)CNC(C)(C)C.Cl` (centres unmarked) [Beispiel 39, 1-(4-Methylphenyl)-3-[3′-(2-hydroxy-3-tert.-butylaminopropoxy)-4′-methoxyphenyl]-1-propanon-hydrochlorid] the S.F. was 5,0.
With `COc1ccc(CCC(=O)c2ccc(C)cc2)cc1OCC(O)CN1CCCCC1.Cl` (centres unmarked) [Beispiel 40, 1-(4-Methylphenyl)-3-[3′-(2-hydroxy-3-piperidinopropoxy)-4′-methoxyphenyl]-1-propanon-hydrochlorid] the S.F. was 5,1.
For `CCCNCC(O)COc1cc(CCC(=O)c2c(C)cc(C)cc2C)ccc1OC.O=C(O)C(=O)O` (centres unmarked) [Beispiel 44, 1-(2,4,6-Trimethylphenyl)-3-[3′-(2-hydroxy-3-n-propylaminopropoxy)-4′-methoxyphenyl]-1-propanon-oxalat], the S.F. was 8,5.
For `CCC(C)(C)NCC(O)COc1cc(CCC(=O)c2ccc3ccccc3c2)ccc1OC.Cl` (centres unmarked) [Beispiel 47, 1-(2-Naphthyl)-3-[3′-(2-hydroxy-3-tert.-pentylaminopropoxy)-4′-methoxyphenyl]-1-propanon-hydrochlorid], the S.F. was 3,4.
For `CCCNCC(O)COc1cc(CCC(=O)c2ccc3ccccc3c2)ccc1OC.Cl` (centres unmarked) [Beispiel 48, 1-(2-Napthyl)-3-[3′-(2-hydroxy-3-n-propylaminopropoxy)-4′-methoxyphenyl]-1-propanon-hydrochlorid], the S.F. was 11,7.
For `COc1ccc(CCC(=O)c2ccc3ccccc3c2)cc1OCC(O)CNC(C)C.Cl` (centres unmarked) [Beispiel 49, 1-(2-Naphthyl)-3-[3′-(2-hydroxy-3-isopropylaminopropoxy)-4′-methoxyphenyl]-1-propanon-hydrochlorid], the S.F. was 4,6.
With `O=C(NCC1CCCCN1)c1cc(OCC(F)(F)F)ccc1OCC(F)(F)F` (centres unmarked) [Flecainid, reference compound] the S.F. was 1,7.

From patent publication EP0297435A2, “Aminopropanol derivatives of 3-(3'-hydroxyphenyl)-1-propanone, process for their preparation and medicines containing these compounds” (Helopharm W. Petrik GmbH & Co.KG., priority 1987, dated 1989)
